According to the supplement of paper PMC7824004:
Some of the results follow. The data scatter; read single values as rough.

Tested on: Candida albicans SN425
Assay: biofilm OD600 B-score; higher = more biofilm (less inhibition)
Conditions: 10 µM; assay detail: High-throughput adherence inhibition optical density biofilm assay with C. albicans SN425 in RPMI-1640/MOPS pH 7.0, 384-well plates. …
Procedure: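 High-throughput adherence inhibition optical density biofilm assay with C. albicans SN425 in RPMI-1640/MOPS pH 7.0, 384-well plates. Compound (10 µM) was present only during the 90 min adherence step, then washed out, and the biofilm grew 24 h without compound. Biofilm was read as OD600 after removing the media. Scores are the difference from the mean in standard deviations and the plate B-score.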

SMILES | biofilm OD600 B-score
CCCN(CCO)CC1CC=CCC1 (stereo not given) | -0.897
O=C(c1cc(Br)ccc1Cl)N1CCN(c2ncccn2)CC1 | -0.661
Cc1cc(NC(=O)c2ccc(Br)o2)no1 | -0.0608
Cn1cc(CNC(=O)Nc2ccccc2)cn1 | -0.381
Cn1c(-c2ccccc2)cnc1SCc1csc(N)n1 | -0.313
Cc1ccc(-c2ccc(C)cc2N)c(N)c1 | -2.78
Cc1c(N)cc(N)cc1C(=O)O | -2.42
CN(C)CCN(C)Cc1ccc(F)cc1 | -0.472
COc1ccc(CN2CCN(c3ccccn3)CC2)c(C)c1C | 2.06
Cc1cc(OCC(O)CN2CCOCC2)cc(C)c1Cl (stereo not given) | 2.02
CC(=O)Nc1cccc(OCC(=O)Nc2ccc(C)cc2)c1 | 1.76
CCC(=O)Nc1ccc(Br)c2cccnc12 | 0.319
Cc1cccc(C(=O)Nc2ccccc2CO)c1 | -0.714
COc1ccc(C(N)=O)cc1S(=O)(=O)N1CCOCC1 | 0.3
CC(=O)Nc1ccc(-c2cn(Cc3ccccc3)cn2)cc1 | 0.0162

Some values from the results shown:
Entry for Cn1c(-c2ccccc2)cnc1SCc1csc(N)n1 under biofilm OD600 B-score: -0.313
Entry for Cc1cc(NC(=O)c2ccc(Br)o2)no1 under biofilm OD600 B-score: -0.0608
